These are yes or no findings as the source states them, for the method shown. Some results given as binding are weak or reduced against the parent protein; the word gives no strength.
Target: T1, TRAF1 TRAF domain (amino acid residues 220-416) (UniProt Q13077)
T1 sequence: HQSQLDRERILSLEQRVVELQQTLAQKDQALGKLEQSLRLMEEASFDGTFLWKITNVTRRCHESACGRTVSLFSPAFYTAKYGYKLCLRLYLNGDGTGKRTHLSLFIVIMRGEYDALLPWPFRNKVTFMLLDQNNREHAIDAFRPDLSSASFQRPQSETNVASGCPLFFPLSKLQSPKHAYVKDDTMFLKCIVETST
Experiment: SEC; Superdex 200 10/30; proteins mixed, 1 h at 4 °C, concentrated to 4-5 mg/mL; 20 mM Tris pH 8.0, 150 mM NaCl; fractions on SDS-PAGE; both purified

B1: N-terminal domain of TRADD (TRADD-N, amino acid residues 1-163) (domain or fragment, UniProt Q15628 1-163, looked up)
chain: MAAGQNGHEEWVGSAYLFVESSLDKVVLSDAYAHPQQKVAVYRALQAALAESGGSPDVLQMLKIHRSDPQLIVQLRFCGRQPCGRFLRAYREGALRAALQRSLAAALAQHSVPLQLELRAGAERLDALLADEERCLSCILAQQPDRLRDEELAELEDALRNLK
notes: TRADD (tumor necrosis factor receptor type 1-associated death domain protein), N-terminal domain, residues 1-163; Cloned into pET24a by NdeI and XhoI; source: E. coli, purified (almost identical to the method for TRAF1 and TRAF2; SEC in 20 mM Tris-HCl pH 8.0, 150 mM NaCl)
- binding: binds weakly
